PubChem BioAssay AID1259254, NCATS, 2017
The whole screen tested about 59,000 reagents; below is a part drawn at random. In the full data, about 1,550 (2.6%) got an active call. 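G2 share is only a proxy for re-replication; each gene was hit by three separate siRNAs, and active genes were retested.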 Entries without a mark were called inactive. Reagents against one gene are numbered here. Further read-outs or replicates are left out here. The record does not give: the amount of reagent.

Screen: 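Finding genes that stop cells copying their DNA twice in one cycle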 (primary screen)
Cell system: human HCT116 colorectal cancer cells
Reagents: single siRNA against human genes
Duration: 3 days
Detection: 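Imaged Hoechst DNA stain sorts each cell into a cycle phase by DNA amount; per plate, G2 fraction set to 0% for non-targeting and 100% for GMNN siRNA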
Reading the numbers: G2 robust z-score and G2 cells, % of GMNN control: higher = more G2 cells, more excess DNA replication
Rule for the call: 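Active siRNAs have a G2 robust z of 5 or more median absolute deviations over the median, which in these data means about 38% or higher of GMNN control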

gene symbol,siRNA no.,G2 robust z-score,"G2 cells, % of GMNN control"
CDK17 (cyclin dependent kinase 17),1,1.36,12.5
CDK17 (cyclin dependent kinase 17),2,-0.797,-2.64
CDK17 (cyclin dependent kinase 17),3,-1.11,-4.83
ADRA1D (adrenoceptor alpha 1D),1,0.145,3.99
ADRA1D (adrenoceptor alpha 1D),2,-1.1,-4.79
ADRA1D (adrenoceptor alpha 1D),3,0.656,7.58
DHX30 (DExH-box helicase 30),1,-1.07,-4.6
DHX30 (DExH-box helicase 30),2,-0.131,2.05
DHX30 (DExH-box helicase 30),3,-0.71,-2.03
L2HGDH (L-2-hydroxyglutarate dehydrogenase),1,0.646,7.51
L2HGDH (L-2-hydroxyglutarate dehydrogenase),2,-1.07,-4.54
L2HGDH (L-2-hydroxyglutarate dehydrogenase),3,-0.473,-0.363
MOSPD3 (motile sperm domain containing 3),1,0.689,7.81
MOSPD3 (motile sperm domain containing 3),2,0.797,8.57
MOSPD3 (motile sperm domain containing 3),3,-0.423,-0.00998
RPS6KA4 (ribosomal protein S6 kinase A4),1,1.37,12.6
RPS6KA4 (ribosomal protein S6 kinase A4),2,-0.781,-2.53
RPS6KA4 (ribosomal protein S6 kinase A4),3,4.26,32.9
TMEM174 (transmembrane protein 174),1,-0.0586,2.56
TMEM174 (transmembrane protein 174),2,1.39,12.7
TMEM174 (transmembrane protein 174),3,-0.219,1.42
GNMT (glycine N-methyltransferase),1,0.655,7.58
GNMT (glycine N-methyltransferase),2,-0.736,-2.21
GNMT (glycine N-methyltransferase),3,4.72,36.2
FAM171B (family with sequence similarity 171 member B),1,-0.596,-1.23
FAM171B (family with sequence similarity 171 member B),2,0.324,5.25
FAM171B (family with sequence similarity 171 member B),3,0.478,6.33
IFIT3 (interferon induced protein with tetratricopeptide repeats 3),1,-0.566,-1.01
IFIT3 (interferon induced protein with tetratricopeptide repeats 3),2,-1.04,-4.33
IFIT3 (interferon induced protein with tetratricopeptide repeats 3),3,0.667,7.66

Taken from above:
For “G2 cells, % of GMNN control”, ADRA1D (adrenoceptor alpha 1D) #2 is entered as -4.79
Entry for L2HGDH (L-2-hydroxyglutarate dehydrogenase) #2 in “G2 robust z-score”: -1.07
Result for CDK17 (cyclin dependent kinase 17) #2 under “G2 robust z-score”: -0.797
Value for MOSPD3 (motile sperm domain containing 3) #2 in “G2 robust z-score”: 0.797
Under “G2 cells, % of GMNN control”, DHX30 (DExH-box helicase 30) #2 has 2.05
Under “G2 cells, % of GMNN control”, ADRA1D (adrenoceptor alpha 1D) #3 is entered as 7.58

Next reagents follow.
gene symbol,siRNA no.,G2 robust z-score,"G2 cells, % of GMNN control"
ABCG8 (ATP binding cassette subfamily G member 8),1,2.35,19.5
ABCG8 (ATP binding cassette subfamily G member 8),2,-0.77,-2.45
ABCG8 (ATP binding cassette subfamily G member 8),3,0.405,5.82
TOX (thymocyte selection associated high mobility group box),1,4.54,34.9
TOX (thymocyte selection associated high mobility group box),2,-0.373,0.345
TOX (thymocyte selection associated high mobility group box),3,-0.945,-3.68
DNAJC15 (DnaJ heat shock protein family (Hsp40) member C15),1,-0.511,-0.629
DNAJC15 (DnaJ heat shock protein family (Hsp40) member C15),2,0.126,3.86
DNAJC15 (DnaJ heat shock protein family (Hsp40) member C15),3,0.362,5.51
SLC18A1,1,-0.281,0.991
SLC18A1,2,2.32,19.3
SLC18A1,3,1.55,13.9
CCL2 (C-C motif chemokine ligand 2),1,1.13,10.9
CCL2 (C-C motif chemokine ligand 2),2,1.96,16.7
CCL2 (C-C motif chemokine ligand 2),3,2.28,19
GFRA1 (GDNF family receptor alpha 1),1,0.142,3.97
GFRA1 (GDNF family receptor alpha 1),2,-0.798,-2.65
GFRA1 (GDNF family receptor alpha 1),3,0.156,4.07
TXNDC5 (thioredoxin domain containing 5),1,-1.2,-5.46
TXNDC5 (thioredoxin domain containing 5),2,0.27,4.87
TXNDC5 (thioredoxin domain containing 5),3,3.01,24.1
DUSP28 (dual specificity phosphatase 28),1,0.647,7.52
DUSP28 (dual specificity phosphatase 28),2,1.39,12.8
DUSP28 (dual specificity phosphatase 28),3,-0.369,0.374
TFAP2D (transcription factor AP-2 delta),1,-0.859,-3.08
TFAP2D (transcription factor AP-2 delta),2,-0.0332,2.73
TFAP2D (transcription factor AP-2 delta),3,-0.623,-1.41
TMEM132E (transmembrane protein 132E),1,-0.668,-1.73
TMEM132E (transmembrane protein 132E),2,-0.369,0.373
TMEM132E (transmembrane protein 132E),3,-0.418,0.0241
SRD5A3 (steroid 5 alpha-reductase 3),1,0.882,9.18
SRD5A3 (steroid 5 alpha-reductase 3),2,0.775,8.42
SRD5A3 (steroid 5 alpha-reductase 3),3,2.66,21.7
ANO7 (anoctamin 7),1,0.107,3.72
ANO7 (anoctamin 7),2,-0.49,-0.484
ANO7 (anoctamin 7),3,1.08,10.6
SLC35B3,1,-0.931,-3.58
SLC35B3,2,0.289,5
SLC35B3,3,-0.842,-2.96
